# Data reported in patent publication US20140017221A1.
# Experiments:
# [1] = target: T1, SOD2 (endogenous, 293T cells) (UniProt P04179); test: FIG. 3A: Flag-SIRT3 transfected into 293T cells, immunopurified, western blot with anti-SOD2
# T1 sequence (looked up): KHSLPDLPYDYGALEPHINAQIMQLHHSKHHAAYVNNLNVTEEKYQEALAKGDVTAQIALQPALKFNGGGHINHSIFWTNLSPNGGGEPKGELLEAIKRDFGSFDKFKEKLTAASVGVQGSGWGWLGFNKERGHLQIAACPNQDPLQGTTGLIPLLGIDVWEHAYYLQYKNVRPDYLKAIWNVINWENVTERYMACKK
# [2] = target: T1, SOD2 (endogenous, 293T cells); test: co-immunopurification (anti-Flag) from 293T cells overexpressing Flag-SIRT3, western blot with SOD2 antibody
# [3] = target: T2, SIRT3 (present in 293T cells) (UniProt Q9NTG7); test: co-immunopurification from 293T cells transfected with Flag-SOD2, western blot with SIRT3 antibody
# T2 sequence (looked up): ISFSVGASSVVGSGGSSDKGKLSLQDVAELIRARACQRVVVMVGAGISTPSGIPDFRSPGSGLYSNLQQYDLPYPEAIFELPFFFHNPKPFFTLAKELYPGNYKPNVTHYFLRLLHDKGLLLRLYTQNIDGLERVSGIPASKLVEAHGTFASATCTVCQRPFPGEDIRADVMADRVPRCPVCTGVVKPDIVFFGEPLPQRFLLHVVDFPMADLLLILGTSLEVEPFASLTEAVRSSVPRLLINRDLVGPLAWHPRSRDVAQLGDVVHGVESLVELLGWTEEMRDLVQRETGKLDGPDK
# [4] = target: T2, SIRT3 (present in 293T cells); test: FIG. 3B: Flag-SOD2 transfected into 293T cells, immunopurified, western blot with anti-SIRT3
binding [1],binding [2],binding [3],binding [4],Substance
binds,binds,,,Flag-tagged SIRT3 (enzyme)
,,binds,binds,Flag-tagged SOD2 (enzyme)

# These are yes or no findings as the source states them, for the method shown. Binding can be weak; no strength is given. For some of these results: Binding seen in cells or lysates may run through a third protein.
